Drawing on the supplement of paper PMC10849652, this text covers log2 fold change for 17 targets.

The chains behind the UniProt entries cited, without tags or fusion partners. Where a name states a change or a piece, a line headed by the entry shows the natural chain unless it says otherwise.
UniProt Q9Y3R5: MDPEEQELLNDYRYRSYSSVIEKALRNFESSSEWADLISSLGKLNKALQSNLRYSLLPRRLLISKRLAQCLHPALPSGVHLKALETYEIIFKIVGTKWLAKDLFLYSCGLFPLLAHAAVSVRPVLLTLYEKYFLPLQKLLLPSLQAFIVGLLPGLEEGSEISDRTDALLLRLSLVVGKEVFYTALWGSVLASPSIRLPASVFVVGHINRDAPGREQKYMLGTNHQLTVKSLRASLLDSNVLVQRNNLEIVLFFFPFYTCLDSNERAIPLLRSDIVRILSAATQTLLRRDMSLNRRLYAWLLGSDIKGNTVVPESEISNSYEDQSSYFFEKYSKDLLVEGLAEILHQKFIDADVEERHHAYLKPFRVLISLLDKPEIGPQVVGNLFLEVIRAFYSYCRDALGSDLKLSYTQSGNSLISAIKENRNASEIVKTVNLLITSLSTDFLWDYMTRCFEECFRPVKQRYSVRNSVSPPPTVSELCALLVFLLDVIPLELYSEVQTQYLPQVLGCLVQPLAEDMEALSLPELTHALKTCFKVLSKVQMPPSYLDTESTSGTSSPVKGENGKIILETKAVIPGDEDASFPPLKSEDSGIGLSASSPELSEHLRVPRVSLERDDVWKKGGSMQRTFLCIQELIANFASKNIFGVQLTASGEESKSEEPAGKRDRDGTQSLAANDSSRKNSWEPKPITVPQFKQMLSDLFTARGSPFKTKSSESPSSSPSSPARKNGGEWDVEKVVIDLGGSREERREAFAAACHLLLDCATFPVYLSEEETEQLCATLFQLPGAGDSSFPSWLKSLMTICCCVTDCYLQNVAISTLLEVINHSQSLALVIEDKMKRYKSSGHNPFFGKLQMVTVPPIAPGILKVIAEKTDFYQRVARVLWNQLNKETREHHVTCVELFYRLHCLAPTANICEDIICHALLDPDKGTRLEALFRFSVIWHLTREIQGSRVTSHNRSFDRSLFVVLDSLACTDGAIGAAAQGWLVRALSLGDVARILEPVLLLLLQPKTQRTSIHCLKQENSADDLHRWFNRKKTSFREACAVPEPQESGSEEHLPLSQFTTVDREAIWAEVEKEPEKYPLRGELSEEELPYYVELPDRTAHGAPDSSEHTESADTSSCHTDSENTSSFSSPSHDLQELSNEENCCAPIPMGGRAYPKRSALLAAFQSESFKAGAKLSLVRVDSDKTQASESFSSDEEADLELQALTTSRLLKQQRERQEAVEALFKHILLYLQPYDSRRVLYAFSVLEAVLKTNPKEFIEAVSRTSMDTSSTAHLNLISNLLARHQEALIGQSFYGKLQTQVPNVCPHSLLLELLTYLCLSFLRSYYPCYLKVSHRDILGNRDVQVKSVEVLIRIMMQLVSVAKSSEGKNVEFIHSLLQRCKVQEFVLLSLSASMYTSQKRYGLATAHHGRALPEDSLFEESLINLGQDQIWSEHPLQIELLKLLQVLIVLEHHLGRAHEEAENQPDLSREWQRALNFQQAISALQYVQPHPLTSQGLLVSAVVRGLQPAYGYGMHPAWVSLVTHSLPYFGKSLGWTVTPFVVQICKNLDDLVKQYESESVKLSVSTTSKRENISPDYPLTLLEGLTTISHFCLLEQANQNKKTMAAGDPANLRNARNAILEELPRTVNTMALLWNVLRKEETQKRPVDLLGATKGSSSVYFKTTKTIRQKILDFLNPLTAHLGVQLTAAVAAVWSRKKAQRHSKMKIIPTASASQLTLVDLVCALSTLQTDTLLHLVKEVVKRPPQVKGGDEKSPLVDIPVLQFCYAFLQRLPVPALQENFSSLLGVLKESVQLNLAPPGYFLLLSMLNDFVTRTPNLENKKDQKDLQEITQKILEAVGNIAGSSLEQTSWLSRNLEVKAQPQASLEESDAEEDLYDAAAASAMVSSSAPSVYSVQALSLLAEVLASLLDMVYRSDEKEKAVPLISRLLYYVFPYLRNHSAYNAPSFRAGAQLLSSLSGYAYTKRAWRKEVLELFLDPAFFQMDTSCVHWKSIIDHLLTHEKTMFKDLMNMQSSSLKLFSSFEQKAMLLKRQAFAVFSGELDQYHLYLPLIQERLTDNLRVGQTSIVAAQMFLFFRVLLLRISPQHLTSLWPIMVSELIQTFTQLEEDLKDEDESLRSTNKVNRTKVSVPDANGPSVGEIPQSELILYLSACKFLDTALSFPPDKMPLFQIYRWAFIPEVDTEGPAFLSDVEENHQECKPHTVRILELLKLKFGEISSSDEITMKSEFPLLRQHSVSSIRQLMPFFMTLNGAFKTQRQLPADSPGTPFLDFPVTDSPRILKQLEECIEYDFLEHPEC
UniProt Q6P3W2: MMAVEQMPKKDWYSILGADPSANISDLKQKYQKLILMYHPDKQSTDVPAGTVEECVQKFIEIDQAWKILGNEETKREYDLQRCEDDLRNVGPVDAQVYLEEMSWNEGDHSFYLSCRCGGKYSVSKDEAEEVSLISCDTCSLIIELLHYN
UniProt Q7RTS9: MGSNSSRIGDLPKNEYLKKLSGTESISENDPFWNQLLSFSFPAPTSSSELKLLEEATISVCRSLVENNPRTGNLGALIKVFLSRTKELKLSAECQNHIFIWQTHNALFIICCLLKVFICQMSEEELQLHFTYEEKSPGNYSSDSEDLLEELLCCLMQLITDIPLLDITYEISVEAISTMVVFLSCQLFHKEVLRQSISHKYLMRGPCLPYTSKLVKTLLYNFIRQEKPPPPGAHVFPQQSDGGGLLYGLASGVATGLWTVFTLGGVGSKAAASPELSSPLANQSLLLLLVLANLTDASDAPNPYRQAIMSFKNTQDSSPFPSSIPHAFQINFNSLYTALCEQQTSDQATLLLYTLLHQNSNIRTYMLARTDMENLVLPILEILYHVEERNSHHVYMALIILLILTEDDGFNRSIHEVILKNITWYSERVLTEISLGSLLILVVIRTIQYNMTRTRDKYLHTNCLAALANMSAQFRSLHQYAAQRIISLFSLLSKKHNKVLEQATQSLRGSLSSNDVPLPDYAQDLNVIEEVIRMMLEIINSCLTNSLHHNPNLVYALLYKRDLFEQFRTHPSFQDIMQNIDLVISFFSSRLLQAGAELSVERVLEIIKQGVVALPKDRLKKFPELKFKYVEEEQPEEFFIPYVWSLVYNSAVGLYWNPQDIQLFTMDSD
UniProt Q9NYP3: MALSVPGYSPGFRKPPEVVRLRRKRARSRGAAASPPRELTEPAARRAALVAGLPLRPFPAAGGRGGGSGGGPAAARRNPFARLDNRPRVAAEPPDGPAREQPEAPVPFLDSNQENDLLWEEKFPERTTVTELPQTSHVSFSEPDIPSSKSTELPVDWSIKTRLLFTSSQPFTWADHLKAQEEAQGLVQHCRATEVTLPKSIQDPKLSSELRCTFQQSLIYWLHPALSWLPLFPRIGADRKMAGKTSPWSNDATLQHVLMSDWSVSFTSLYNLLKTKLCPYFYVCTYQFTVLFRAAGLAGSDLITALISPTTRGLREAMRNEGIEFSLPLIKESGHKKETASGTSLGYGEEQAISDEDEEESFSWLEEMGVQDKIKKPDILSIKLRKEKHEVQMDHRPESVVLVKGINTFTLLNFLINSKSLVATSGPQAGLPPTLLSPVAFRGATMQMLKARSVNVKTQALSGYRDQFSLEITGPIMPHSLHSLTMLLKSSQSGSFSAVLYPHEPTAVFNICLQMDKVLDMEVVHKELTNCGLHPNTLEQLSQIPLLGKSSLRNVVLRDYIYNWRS
UniProt Q9NRR4: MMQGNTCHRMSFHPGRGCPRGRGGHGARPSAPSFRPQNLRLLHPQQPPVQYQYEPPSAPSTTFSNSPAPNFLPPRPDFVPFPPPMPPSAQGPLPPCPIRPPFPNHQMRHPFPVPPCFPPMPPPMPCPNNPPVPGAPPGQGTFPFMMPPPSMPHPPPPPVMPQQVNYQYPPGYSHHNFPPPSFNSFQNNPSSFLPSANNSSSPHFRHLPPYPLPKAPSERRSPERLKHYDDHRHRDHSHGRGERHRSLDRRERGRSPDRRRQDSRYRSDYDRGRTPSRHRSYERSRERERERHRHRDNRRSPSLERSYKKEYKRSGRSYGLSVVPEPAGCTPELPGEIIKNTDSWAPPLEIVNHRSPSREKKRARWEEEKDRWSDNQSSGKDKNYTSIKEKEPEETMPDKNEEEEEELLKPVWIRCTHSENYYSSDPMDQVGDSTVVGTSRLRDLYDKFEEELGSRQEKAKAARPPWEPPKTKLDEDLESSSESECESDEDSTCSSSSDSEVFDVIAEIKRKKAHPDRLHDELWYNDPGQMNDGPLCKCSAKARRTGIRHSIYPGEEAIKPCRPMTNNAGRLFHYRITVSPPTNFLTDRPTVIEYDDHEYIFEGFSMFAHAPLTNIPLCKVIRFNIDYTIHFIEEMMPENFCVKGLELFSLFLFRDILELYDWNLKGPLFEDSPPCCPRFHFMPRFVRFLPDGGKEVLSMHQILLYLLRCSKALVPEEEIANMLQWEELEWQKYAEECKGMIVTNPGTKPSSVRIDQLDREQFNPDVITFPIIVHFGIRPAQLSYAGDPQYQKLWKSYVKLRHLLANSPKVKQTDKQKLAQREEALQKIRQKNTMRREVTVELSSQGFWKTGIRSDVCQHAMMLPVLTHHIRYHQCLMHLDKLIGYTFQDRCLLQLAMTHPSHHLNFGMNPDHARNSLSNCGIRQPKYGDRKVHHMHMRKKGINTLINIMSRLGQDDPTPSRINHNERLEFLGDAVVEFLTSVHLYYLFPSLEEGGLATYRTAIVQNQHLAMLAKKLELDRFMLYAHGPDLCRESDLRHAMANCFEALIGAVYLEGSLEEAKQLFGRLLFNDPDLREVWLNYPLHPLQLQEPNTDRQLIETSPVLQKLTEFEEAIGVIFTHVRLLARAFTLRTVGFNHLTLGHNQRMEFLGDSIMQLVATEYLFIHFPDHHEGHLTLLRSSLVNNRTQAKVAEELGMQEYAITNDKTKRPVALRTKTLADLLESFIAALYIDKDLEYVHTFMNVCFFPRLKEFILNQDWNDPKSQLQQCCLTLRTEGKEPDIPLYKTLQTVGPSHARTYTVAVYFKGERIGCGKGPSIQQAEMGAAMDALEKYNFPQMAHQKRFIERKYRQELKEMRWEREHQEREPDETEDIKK
UniProt Q6XUX3: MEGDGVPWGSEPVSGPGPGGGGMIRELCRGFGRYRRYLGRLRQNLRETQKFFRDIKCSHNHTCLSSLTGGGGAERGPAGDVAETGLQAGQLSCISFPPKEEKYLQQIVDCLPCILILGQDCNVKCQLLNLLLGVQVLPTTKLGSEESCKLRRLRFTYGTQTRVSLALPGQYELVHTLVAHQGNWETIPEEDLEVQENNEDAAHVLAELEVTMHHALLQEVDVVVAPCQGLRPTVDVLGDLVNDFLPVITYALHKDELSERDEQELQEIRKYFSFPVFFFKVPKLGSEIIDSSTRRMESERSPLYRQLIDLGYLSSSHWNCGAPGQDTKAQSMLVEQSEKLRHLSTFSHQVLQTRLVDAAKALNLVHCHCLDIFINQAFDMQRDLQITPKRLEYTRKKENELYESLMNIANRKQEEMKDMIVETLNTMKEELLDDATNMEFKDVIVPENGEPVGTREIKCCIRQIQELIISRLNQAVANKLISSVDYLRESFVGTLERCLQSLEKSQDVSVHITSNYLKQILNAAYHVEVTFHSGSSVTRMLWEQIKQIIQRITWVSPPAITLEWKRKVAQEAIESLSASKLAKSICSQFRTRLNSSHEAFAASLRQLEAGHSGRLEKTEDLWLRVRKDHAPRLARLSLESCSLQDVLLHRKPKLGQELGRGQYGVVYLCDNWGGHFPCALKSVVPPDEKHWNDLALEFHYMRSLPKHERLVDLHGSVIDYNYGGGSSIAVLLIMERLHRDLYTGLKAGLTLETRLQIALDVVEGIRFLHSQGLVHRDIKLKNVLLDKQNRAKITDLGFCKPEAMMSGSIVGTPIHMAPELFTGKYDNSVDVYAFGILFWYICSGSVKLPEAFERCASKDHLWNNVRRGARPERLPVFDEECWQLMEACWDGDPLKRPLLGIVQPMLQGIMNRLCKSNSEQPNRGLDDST
UniProt Q6P1R4: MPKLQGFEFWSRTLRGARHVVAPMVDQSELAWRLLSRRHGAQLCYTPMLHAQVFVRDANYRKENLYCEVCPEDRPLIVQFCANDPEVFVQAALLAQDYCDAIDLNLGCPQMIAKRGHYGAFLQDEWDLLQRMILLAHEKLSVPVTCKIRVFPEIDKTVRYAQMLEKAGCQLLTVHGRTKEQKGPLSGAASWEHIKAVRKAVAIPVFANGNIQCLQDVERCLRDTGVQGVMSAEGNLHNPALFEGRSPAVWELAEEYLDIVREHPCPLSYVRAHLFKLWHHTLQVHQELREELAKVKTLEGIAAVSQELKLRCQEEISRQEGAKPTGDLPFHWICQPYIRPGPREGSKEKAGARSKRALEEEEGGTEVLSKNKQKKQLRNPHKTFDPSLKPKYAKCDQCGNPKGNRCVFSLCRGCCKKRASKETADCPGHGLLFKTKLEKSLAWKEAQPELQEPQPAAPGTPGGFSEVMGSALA

The other results are listed elsewhere or left out.

Compound in this test: C1CN(CCC1(CC2=CC=C(C=C2)Cl)N)C3=NC=NC4=C3C=CN4
Put plainly: log2 fold change, soluble protein after heating vs DMSO (PISA); higher = thermal stabilisation; K562 cells, 10 uM, 30 min; active = over 0.2 and 3.5 SD of the protein, either way, in both replicates (recomputed). Put shortly: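 For each measurement, 10 μM compound was applied for 30 min to K562 cells at 2×10^6 cells/mL. Aliquots were heated for 3 min across 48°C-58°C, pooled, and extracted in PBS with 0.5% NP-40 at 4°C; the supernatant after 21,000xg for 90 min was soluble protein. This was quantified by TMTpro 16plex LC-MS/MS with channel sums equalised, and thermal stability was reported relative to control samples from duplicates, on a log2 fold-change scale.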
Regarding ECM1 isoform 2 (UniProt Q16610), the log2 fold change is inactive: -0.301.

With DOP1B (UniProt Q9Y3R5), the log2 fold change is inactive: -0.112.

DNAJC24 (UniProt Q6P3W2): the log2 fold change was inactive: -0.158.

In the case of DNPEP (UniProt C9JBE1), the log2 fold change was inactive: -0.14.

Take DYM (UniProt Q7RTS9): the log2 fold change was inactive: -0.01.

With DONSON (UniProt Q9NYP3), the log2 fold change was inactive: 0.004.

Consider DROSHA (UniProt Q9NRR4), for which the log2 fold change is inactive: -0.383.

Take DSTYK (UniProt Q6XUX3): the log2 fold change was inactive: 0.001.

For the target DUS1L (UniProt Q6P1R4), the log2 fold change was inactive: -0.094.

For DOCK10 (UniProt Q96BY6), the log2 fold change is inactive: 0.163.

For DRAM2 (UniProt Q6UX65), the log2 fold change was inactive: 0.048.

On to ECD isoform 3 (UniProt O95905), for which the log2 fold change was inactive: -0.049.

Take DNAJC25 (UniProt Q9H1X3): the log2 fold change was inactive: 0.044.

For the target DPY19L2 (UniProt Q6NUT2), the log2 fold change is inactive: -0.017.

As for E2F3 (UniProt O00716), the log2 fold change is inactive: 0.036.

Take E4F1 (UniProt Q66K89): the log2 fold change was inactive: -0.021.

Consider DNAJB1 (UniProt M0R128), for which the log2 fold change was inactive: 0.133.
